The record followed here is PMC4218836.

Amino acid sequences for entries named in this document (tags omitted). A change or cut given only in a name is not applied to a line headed by its entry.
UniProt Q8C6B2: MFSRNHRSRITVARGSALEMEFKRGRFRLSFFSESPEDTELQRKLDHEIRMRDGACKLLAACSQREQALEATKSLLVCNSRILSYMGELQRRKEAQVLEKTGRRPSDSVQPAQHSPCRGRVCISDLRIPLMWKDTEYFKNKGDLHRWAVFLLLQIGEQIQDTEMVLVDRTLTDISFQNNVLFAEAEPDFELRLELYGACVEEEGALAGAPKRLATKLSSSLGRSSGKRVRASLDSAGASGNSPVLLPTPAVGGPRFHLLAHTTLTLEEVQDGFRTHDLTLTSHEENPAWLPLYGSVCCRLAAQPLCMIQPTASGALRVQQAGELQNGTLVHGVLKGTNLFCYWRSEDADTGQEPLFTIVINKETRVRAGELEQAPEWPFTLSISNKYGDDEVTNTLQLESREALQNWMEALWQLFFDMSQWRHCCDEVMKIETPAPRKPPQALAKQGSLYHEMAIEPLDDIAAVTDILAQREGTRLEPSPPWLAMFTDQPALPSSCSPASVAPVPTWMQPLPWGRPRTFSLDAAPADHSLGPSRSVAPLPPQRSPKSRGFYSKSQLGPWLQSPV
UniProt P61586: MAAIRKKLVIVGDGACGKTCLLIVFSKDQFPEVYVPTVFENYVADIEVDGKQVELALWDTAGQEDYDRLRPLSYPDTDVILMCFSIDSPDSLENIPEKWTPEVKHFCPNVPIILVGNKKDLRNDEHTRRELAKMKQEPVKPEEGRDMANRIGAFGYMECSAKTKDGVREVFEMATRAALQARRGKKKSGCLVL
UniProt P62745: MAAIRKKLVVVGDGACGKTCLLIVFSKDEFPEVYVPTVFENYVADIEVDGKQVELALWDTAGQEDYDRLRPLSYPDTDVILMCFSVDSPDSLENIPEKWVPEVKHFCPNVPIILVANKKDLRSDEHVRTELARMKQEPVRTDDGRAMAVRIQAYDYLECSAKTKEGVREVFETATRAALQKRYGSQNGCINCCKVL

These are yes or no findings as the source states them, for the method shown. In cells and extracts the contact can be indirect. Binding can be weak; no strength is given.

The assay addresses GST fusion protein containing the Rho binding domain of rhotekin (UniProt Q8C6B2). Briefly: pull-down; GST-pulldown: 10-20 µg of GST-RBD on beads with lysates of HeLa cells transfected with Myc-tagged XPLN (or GFP) or serum-starved and treated with EGF (2.5 ng/mL, 10 min); Western blot with anti-RhoA, anti-RhoB; only the target purified. (In western blotting, separated proteins are transferred to a membrane and probed.)

For the substance “endogenous RhoA (from UniProt P61586 1-193)”, the binding entry is “binds”. As for “endogenous RhoB (from UniProt P62745 1-196)”, the entry is “binds”.
